Numbering of substitutions follows the chain as printed. Results are given in words; binding and its absence hold for the method and conditions named. Some results given as binding are weak or reduced against the parent protein; the word gives no strength. One block for each binder: values may come before it.
Columns and labels:
[1] = biological target: T1, human TL1A (Fitzgerald, Prod. #30R-AT070) (human) (UniProt O95150); assay: ELISA on antigen coated plates and ELISA capture of soluble biotinylated antigen
T1 sequence (biotinylated with EZ-Link Sulfo-NHS-LC-Biotin where used as soluble antigen, looked up): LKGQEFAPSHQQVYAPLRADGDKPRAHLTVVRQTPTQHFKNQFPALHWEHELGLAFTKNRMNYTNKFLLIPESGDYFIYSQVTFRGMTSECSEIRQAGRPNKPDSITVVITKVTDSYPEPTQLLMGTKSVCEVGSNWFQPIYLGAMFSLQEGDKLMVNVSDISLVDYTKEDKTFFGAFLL

[2] = biological target: membrane-associated human TL1A on transfected HEK293 cells (human) (UniProt O95150); assay: flow cytometry, HEK293 cells expressing human TL1A, Fab
[3] = biological target: T1, human TL1A (Fitzgerald, Prod. #30R-AT070) (human); assay: ELISA, both formats (immobilised TL1A; captured Fab with soluble biotinylated TL1A)
[4] = biological target: T1, human TL1A (Fitzgerald, Prod. #30R-AT070) (human); assay: ELISA
[5] = biological target: T1, human TL1A (Fitzgerald, Prod. #30R-AT070) (human); assay: Fab ELISA on immobilised antigen
[6] = biological target: T1, human TL1A (Fitzgerald, Prod. #30R-AT070) (human); assay: ELISA, coated human TL1A, Fab titrated
[7] = biological target: T1, human TL1A (Fitzgerald, Prod. #30R-AT070) (human); assay: ELISA, captured Fab, soluble biotinylated antigen
[8] = biological target: T1, human TL1A (Fitzgerald, Prod. #30R-AT070) (human); assay: capture lift screen and Fab ELISA on immobilised antigen
[9] = biological target: T1, human TL1A (Fitzgerald, Prod. #30R-AT070) (human); assay: ELISA, IgG format
[10] = biological target: T2, TL1A used in the epitope binning studies (UniProt O95150); assay: SPR array epitope binning, pre-mix
T2 sequence (looked up): T1 sequence (biotinylated with EZ-Link Sulfo-NHS-LC-Biotin where used as soluble antigen, looked up)

[11] = biological target: T1, human TL1A (Fitzgerald, Prod. #30R-AT070) (human); assay: filter lift assay
[12] = biological target: T1, human TL1A (Fitzgerald, Prod. #30R-AT070) (human); assay: capture filter lift assay
[13] = biological target: T1, human TL1A (Fitzgerald, Prod. #30R-AT070) (human); assay: capture lift assay, biotinylated antigen
[14] = biological target: T1, human TL1A (Fitzgerald, Prod. #30R-AT070) (human); assay: filter lift assay, 8 nM biotinylated human TL1A

B1: Clone 17L IgG2 (antibody)
heavy: QVQLVQSGAEVKKPGASVKVSCKASGFDIQDTYMHWVRQAPGQGLEWMGRIDPASGHLKYDPKFQVRVTMTRDTSTSTVYMELSSLRSEDTAVYYCARSGGLPDMWGQGTTVTVSSASTKGPSVFPLAPCSRSTSESTAALGCLVKDYFPEPVTVSWNSGALTSGVHTFPAVLQSSGLYSLSSVVTVPSSNFGTQTYTCNVDHKPSNTKVDKTVERKCCVECPPCPAPPVAGPSVFLFPPKPKDTLMISRTPEVTCVVVDVSHEDPEVQFNWYVDGVEVHNAKTKPREEQFNSTFRVVSVLTVVHQDWLNGKEYKCKVSNKGLPAPIEKTISKTKGQPREPQVYTLPPSREEMTKNQVSLTCLVKGFYPSDIAVEWESNGQPENNYKTTPPMLDSDGSFFLYSKLTVDKSRWQQGNVFSCSVMHEALHNHYTQKSLSLSPGK
light: EIVLTQSPGTLSLSPGERATLSCRASSSVSYMYWYQQKPGQAPRLLIYATSNLASGIPDRFSGSGSGTDFTLTISRLEPEDFAVYYCQQWQGNPRTFGGGTKLEIKRTVAAPSVFIFPPSDEQLKSGTASVVCLLNNFYPREAKVQWKVDNALQSGNSQESVTEQDSKDSTYSLSSTLTLSKADYEKHKVYACEVTHQGLSSPVTKSFNRGEC
binding [1]: binds

B2: Clone 23 IgG2 (antibody)
heavy: B1 heavy with V66N, M105K
light: B1 light with Q91E
binding [1]: binds

B6: 21-3 (CDR-grafted HC) Fab (Fab, V domains shown)
VH: QVQLVQSGAEVKKPGASVKVSCKASGFDIQDTYMHWVRQAPGQGLEWMGRIDPASGHTKYDPKFQVRVTMTRDTSTSTVYMELSSLRSEDTAVYYCARSGGLPDVWGQGTTVTVSS
VL: EIVLTQSPGTLSLSPGERATLSCRASSSVSYMYWYQQKPGQAPRLLIYATSNLASGVPDRFSGSGSGTDYTLTISRLEPEDFAVYYCQQWSGNPRTFGGGTKLEIK
binding [4]: binds
binding [7]: binds
binding [8]: binds

B8: 18-7 (CDR-grafted LC) Fab (Fab, V domains shown)
VH: B6 VH with V20L, A97S
VL: B6 VL with V57I, Y70F
binding [4]: binds
binding [7]: binds
binding [8]: binds

B9: L8 (CDR graft) Fab (Fab, V domains shown)
VH: B6 VH
VL: B6 VL with V57I, Y70F
binding [4]: binds
binding [5]: binds
binding [7]: binds

B10: 1A9 (antibody, V domains shown)
VH: QIQLVQSGPELKKPGETVKISCKASGYTFTTYGMSWVKQAPGKGLKWMGWMNTYSGVTTYADDFKGRFAFSLETSASTAYMQIDNLKNEDTATYFCAREGYVFDDYYATDYWGQGTSVTVSS
VL: DVLMTQTPLSLPVSLGDQASISCRSSQNIVHSDGNTYLEWYLQKPGQSPKLLIYKVSNRFSGVPDRFSGSGSGTDFTLKISRVEAEDLGIYYCFQGSHVPLTFGAGTKLELK
binding [10]: binds

B13: 1681 (antibody, V domains shown)
VH: EVQLLESGGGLVQPGKSLRLSCAVSGFTFSTYGMNWVRQAPGKGLEWVSSISGTGRTTYHADSVQGRFTVSRDNSKNILYLQMNSLRADDTAVYFCTKERGDYYYGVFDYWGQGTLVTVSS
VL: DIQMTQSPSTLSASVGDRVTITCRASQTISSWLAWYQQTPEKAPKLLIYAASNLQSGVPSRFSGSGSGTEFTLTISSLQPDDFATYYCQQYHRSWTFGQGTKVEIT
binding [10]: binds

Results, then the binder that gave them:

binding [1]: binds
B3: Clone 53 IgG2 (antibody)
heavy: B1 heavy with D52E, V66E, M105K
light: B1 light with Q91E

binding [2]: binds
binding [3]: binds
B4: Clone X Fab (Fab, V domains shown)
VH: B6 VH with V66G, V68A, M70I, R72T, T76A, V79A, M81L, E82Q, V105F
VL: B6 VL with V57I, Y70F

binding [4]: binds
binding [5]: binds
binding [6]: binds
binding [7]: binds
binding [8]: binds
B5: humanized 12835 Fab (Fab, V domains shown)
VH: B6 VH with V20L, R72T, A97S
VL: B6 VL with A19V, L21M, L45P, L46W

binding [9]: binds
binding [10]: binds
B7: humanized 12835 antibody (antibody, V domains shown)
VH: B6 VH with V20L, R72T, A97S
VL: B6 VL with A19V, L21M, L45P, L46W

binding [4]: binds
binding [11]: binds
binding [12]: binds
binding [13]: binds
binding [14]: binds
binding [7]: binds
B11: chimeric 5C3D11 Fab (Fab, V domains shown)
VH: EVQLQQSGAELVKPGASVKLSCTASGFDIQDTYMHWVKQRPEQGLEWIGRIDPASGHTKYDPKFQVKATITTDTSSNTAYLQLSSLTSEDTAVYYCSRSGGLPDVWGAGTTVTVSS
VL: QIVLSQSPAILSASPGEKVTMTCRASSSVSYMYWYQQKPGSSPKPWIYATSNLASGVPDRFSGSGSGTSYSLTISRVEAEDAATYYCQQWSGNPRTFGGGTKLEIK

binding [9]: binds
binding [10]: binds
B12: murine mAb 5C3D11 (antibody, V domains shown)
VH: B11 VH
VL: B11 VL
